What all share (assay): DAPPL (digital affinity profiling via proximity ligation, sequencing)
What all share (conditions): 10 mM Tris-HCl pH 7.5, 50 mM NaCl, 1 mM DTT, 4% glycerol, room temperature, 30 min; GST-TFs on glutathione beads, 16-mer random dsDNA library, 0.1% …; high values mean tight binding; double strand, one strand shown; scale: fold enrichment (6-mer frequency, TF over GST control)

Test [1] concerns the target T1, GABPA (UniProt Q06546).
T1 sequence: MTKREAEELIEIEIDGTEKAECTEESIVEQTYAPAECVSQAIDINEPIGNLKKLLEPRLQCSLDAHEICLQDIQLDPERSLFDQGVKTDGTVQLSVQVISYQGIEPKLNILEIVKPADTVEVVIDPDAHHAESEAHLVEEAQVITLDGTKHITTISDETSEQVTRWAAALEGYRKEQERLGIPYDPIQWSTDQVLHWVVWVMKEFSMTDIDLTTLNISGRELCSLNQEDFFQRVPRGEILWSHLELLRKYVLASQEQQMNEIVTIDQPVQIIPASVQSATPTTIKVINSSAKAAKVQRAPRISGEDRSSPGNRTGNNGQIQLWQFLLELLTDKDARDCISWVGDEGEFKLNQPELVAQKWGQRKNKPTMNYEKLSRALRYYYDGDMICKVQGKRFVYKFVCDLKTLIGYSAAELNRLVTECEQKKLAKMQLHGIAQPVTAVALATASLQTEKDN

Test [2] concerns the target T2, ETS1 (UniProt P14921).
T2 sequence: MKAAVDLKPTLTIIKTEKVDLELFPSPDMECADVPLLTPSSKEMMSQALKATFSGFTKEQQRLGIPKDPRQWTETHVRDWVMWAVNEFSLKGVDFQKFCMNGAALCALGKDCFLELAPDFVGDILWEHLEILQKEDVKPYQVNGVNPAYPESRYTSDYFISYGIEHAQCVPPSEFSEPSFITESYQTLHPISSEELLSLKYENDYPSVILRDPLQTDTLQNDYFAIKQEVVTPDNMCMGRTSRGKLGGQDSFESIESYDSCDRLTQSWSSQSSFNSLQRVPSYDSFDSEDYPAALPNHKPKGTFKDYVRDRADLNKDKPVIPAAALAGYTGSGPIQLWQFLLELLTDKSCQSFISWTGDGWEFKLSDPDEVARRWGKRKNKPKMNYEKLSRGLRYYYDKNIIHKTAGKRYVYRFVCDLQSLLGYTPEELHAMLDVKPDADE

Test [3] concerns the target T3, SPDEF (UniProt O95238).
T3 sequence: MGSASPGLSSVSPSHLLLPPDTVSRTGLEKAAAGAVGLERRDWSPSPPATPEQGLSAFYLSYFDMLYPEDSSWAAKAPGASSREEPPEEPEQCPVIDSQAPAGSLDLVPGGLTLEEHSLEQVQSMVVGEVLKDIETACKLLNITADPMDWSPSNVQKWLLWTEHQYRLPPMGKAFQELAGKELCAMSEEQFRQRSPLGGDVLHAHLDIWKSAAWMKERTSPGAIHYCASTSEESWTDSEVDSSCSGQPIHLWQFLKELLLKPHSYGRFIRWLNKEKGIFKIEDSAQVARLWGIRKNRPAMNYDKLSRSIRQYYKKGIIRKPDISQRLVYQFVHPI

The list shows a part of the results, in another mix than the full data. For part of these data: At the low end of the ranking the order means little. The list shows a part of the results. For part of these data: Construct or isoform of the protein are uncertain.

Our source for the binding signal values is publication PMC7862700.

Consider TGAGGA, for which the binding signal came to 0.751 in test [1], 0.706 in test [2] and 0.599 in test [3].

As for GAGTGC, the binding signal stood at 0.712 in test [1], 0.569 in test [2] and 0.597 in test [3].

Turning to GACATA, the binding signal in test [1] is 0.873; in test [2] it was 0.885; in test [3], 0.936.

On to GGTTAG, for which the binding signal in test [1] was 0.77; in test [2] it was 0.738; in test [3], 0.857.

With AGGAGG, the binding signal stood at 0.214 in test [1], 0.195 in test [2] and 0.216 in test [3].

For GCGTGT, the binding signal in test [1] turned out to be 0.515; in test [2], 0.557; in test [3], 0.577.

Regarding CAGGGT, the figures for the binding signal in test [1], in test [2] and in test [3] were 0.859, 0.865 and 0.75, respectively.

Regarding GACGCA, the binding signal stood at 0.586 in test [1], 0.535 in test [2] and 0.542 in test [3].

Take GAGTGG: the binding signal in test [1] came out at 0.57; in test [2] it was 0.639; in test [3], 0.596.

With AGCCAT, the results for the binding signal in test [1], in test [2] and in test [3] were 0.828, 0.817 and 0.814, respectively.

Turning to GCGGGT, the results for the binding signal in test [1], in test [2] and in test [3] were 0.585, 0.643 and 0.599, respectively.

As to AGGACA, the binding signal in test [1] was 0.856; in test [2], 0.82; in test [3], 0.87.

On to CCGTCG, for which the binding signal in test [1] was found to be 0.786; in test [2], 0.85; in test [3], 0.891.

In the case of GAGATT, the results for the binding signal in test [1], in test [2] and in test [3] were 0.742, 0.668 and 0.676, respectively.

Regarding GGTGAA, the binding signal in test [1] stood at 0.836; in test [2] it was 0.81; in test [3] it was 0.735.

In the case of GACCCG, the binding signal in test [1] worked out at 0.851; in test [2] it was 0.882; in test [3], 0.967.

Take AGGTCG: the results for the binding signal in test [1], in test [2] and in test [3] were 0.528, 0.522 and 0.514, respectively.

Consider AGGGTG, for which the binding signal came to 0.769 in test [1], 0.773 in test [2] and 0.693 in test [3].

Consider CGTTGA, for which the binding signal in test [1] worked out at 0.733; in test [2], 0.79; in test [3], 0.849.

For GCATCA, the binding signal in test [1] amounted to 0.815; in test [2], 0.776; in test [3], 0.713.

For the sequence TTGAGT, the binding signal in test [1] came to 0.645; in test [2] it was 0.645; in test [3] it was 0.678.

Regarding GTGTCG, the binding signal in test [1] came out at 0.564; in test [2], 0.643; in test [3], 0.629.

With GGACAA, the results for the binding signal in test [1], in test [2] and in test [3] were 0.848, 0.863 and 0.818, respectively.

Consider GTCGCA, for which the results for the binding signal in test [1], in test [2] and in test [3] were 0.802, 0.726 and 0.714, respectively.

With GCGTAC, the binding signal turned out to be 0.913 in test [1], 0.917 in test [2] and 0.842 in test [3].

For the sequence GGTAGA, the binding signal in test [1] is 0.614; in test [2], 0.601; in test [3] it was 0.669.

As to GTCAGG, the binding signal in test [1] is 0.503; in test [2], 0.506; in test [3], 0.501.

As to GCCAGC, the binding signal in test [1] worked out at 0.753; in test [2], 0.676; in test [3], 0.73.

On to CGCAAG, for which the binding signal in test [1] was 0.853; in test [2], 0.817; in test [3], 0.779.

In the case of GGGATG, the results for the binding signal in test [1], in test [2] and in test [3] were 0.935, 0.926 and 0.993, respectively.

For ACACGT, the binding signal in test [1] was 0.78; in test [2] it was 0.766; in test [3], 0.791.

As to CAGGCT, the binding signal came to 0.746 in test [1], 0.849 in test [2] and 0.72 in test [3].

With AGTCGC, the binding signal in test [1] is 0.488; in test [2], 0.505; in test [3] it was 0.485.

Take GGGGTT: the binding signal in test [1] amounted to 0.789; in test [2], 0.801; in test [3], 0.798.

Take GGTGCG: the binding signal in test [1] amounted to 0.572; in test [2] it was 0.613; in test [3] it was 0.57.

In the case of ATGTCG, the results for the binding signal in test [1], in test [2] and in test [3] were 0.642, 0.616 and 0.695, respectively.

For the sequence GTCGTC, the binding signal in test [1] came to 0.75; in test [2] it was 0.746; in test [3], 0.845.

Regarding GCCGGC, the results for the binding signal in test [1], in test [2] and in test [3] were 0.816, 0.76 and 0.786, respectively.

Consider GTGTGC, for which the binding signal in test [1] amounted to 0.849; in test [2], 0.832; in test [3], 0.749.

For GCCATG, the binding signal was determined as 0.819 in test [1], 0.793 in test [2] and 0.784 in test [3].

On to GACACC, for which the values for the binding signal in test [1], in test [2] and in test [3] were 0.861, 0.814 and 0.897, respectively.

As to GACAAC, the binding signal in test [1] stood at 0.943; in test [2] it was 0.986; in test [3] it was 0.965.

AGGGTA: the binding signal in test [1] stood at 0.946; in test [2], 0.915; in test [3] it was 0.813.

Regarding GGCGTG, the binding signal in test [1] came out at 0.336; in test [2] it was 0.359; in test [3], 0.35.

With GCGTAG, the figures for the binding signal in test [1], in test [2] and in test [3] were 0.769, 0.779 and 0.796, respectively.

GCCAGT: the binding signal amounted to 0.328 in test [1], 0.316 in test [2] and 0.308 in test [3].
